We go through 1 substance from paper PMC11965403.

Chains of the proteins cited; added tags and fusions are not shown. Lines headed by an entry give the natural chain unless they say otherwise; changes in a name come on top.
UniProt Q86U44: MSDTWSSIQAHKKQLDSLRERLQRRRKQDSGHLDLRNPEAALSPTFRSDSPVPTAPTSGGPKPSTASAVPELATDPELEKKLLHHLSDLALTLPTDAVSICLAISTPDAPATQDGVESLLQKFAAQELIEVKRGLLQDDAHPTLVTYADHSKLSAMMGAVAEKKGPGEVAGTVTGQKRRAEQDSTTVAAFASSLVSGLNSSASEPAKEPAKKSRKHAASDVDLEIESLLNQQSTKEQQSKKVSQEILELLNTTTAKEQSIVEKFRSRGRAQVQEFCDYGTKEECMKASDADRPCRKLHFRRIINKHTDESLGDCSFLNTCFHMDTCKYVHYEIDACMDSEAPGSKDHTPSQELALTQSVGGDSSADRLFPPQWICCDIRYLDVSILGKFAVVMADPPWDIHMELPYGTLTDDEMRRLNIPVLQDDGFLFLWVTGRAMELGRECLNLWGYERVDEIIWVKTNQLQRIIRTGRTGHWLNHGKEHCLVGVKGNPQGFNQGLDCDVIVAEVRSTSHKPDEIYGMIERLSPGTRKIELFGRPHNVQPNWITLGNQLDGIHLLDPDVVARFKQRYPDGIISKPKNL
UniProt P19474: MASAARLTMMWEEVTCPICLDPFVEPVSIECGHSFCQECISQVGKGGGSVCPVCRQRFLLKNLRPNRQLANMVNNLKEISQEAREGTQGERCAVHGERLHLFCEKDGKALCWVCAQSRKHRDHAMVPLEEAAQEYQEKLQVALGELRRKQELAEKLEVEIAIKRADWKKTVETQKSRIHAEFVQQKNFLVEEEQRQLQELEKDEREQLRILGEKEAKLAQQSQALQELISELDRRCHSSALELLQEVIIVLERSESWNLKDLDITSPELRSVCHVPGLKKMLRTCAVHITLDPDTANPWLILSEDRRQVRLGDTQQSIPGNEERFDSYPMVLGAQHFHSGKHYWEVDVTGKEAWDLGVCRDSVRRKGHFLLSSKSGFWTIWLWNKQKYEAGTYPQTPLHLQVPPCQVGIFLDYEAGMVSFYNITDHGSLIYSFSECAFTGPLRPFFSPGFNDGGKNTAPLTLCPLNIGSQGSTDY

Results are given in words; binding and its absence hold for the method and conditions named. In cells and extracts the contact can be indirect.

In the experiment the target is Flag-tagged METTL3 (Methyltransferase like 3) (human) (UniProt Q86U44). Put plainly: co-IP; Flag-METTL3 with His-TRIM21 domain-deletion mutants; IP with anti-Flag antibody; cell line not stated.

As for “His-TRIM21 domain-deletion mutant lacking the coiled-coil domain (from UniProt P19474) (enzyme)”, the binding entry was “no binding”.
